These results are taken from PubChem BioAssay AID2685 (National Center for Advancing Translational Sciences (NCATS), 2010).

The nature of the assay: qHTS Assay for Lipid Storage Modulators in Drosophila S3 Cells.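 On cell number change: cells counted by Cell Tracker Red CMTPX staining in the red channel.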 The note with it: BODIPY lipid droplet fluorescence, 18-24 h; for cell number change: measured here: cell count max response, cells fed with added oleic acid. In outline: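 Drosophila S3 cells loaded with oleic acid (400 uM, as added) and compounds at several concentrations; lipid droplets imaged by 488-nm laser-scanning cytometry, 500–530 nm intensity and object ratio to cell channel. Percent activity normalized to 20 uM Triacsin C.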
On the technique in general: qHTS replaces the single test concentration by a dilution series.

[1] abbreviates: measured here: lipid fluorescence (Fed channel) AC50, cells fed with added oleic acid.
Where [2] appears, read: measured here: cell number channel AC50, cells fed with added oleic acid.

SMILES strings stand for the structures. This is one part of the list. These are further read-outs of the screen, such as a control signal, another cell line or another target. No call is given for them. Most of these compounds were active or inconclusive in the main read-out, so they are no random draw. Words in brackets tell the shape of the fitted curve; partial curves, single points and poor fits give uncertain potencies.

As to `CCOc1cccc(OCCOc2ccc(C(=O)c3ccccc3)cc2)c1`, the cell number change is 9.61%. Besides, under setting [1], the AC50 – broadly, the concentration giving half of the maximal activity seen – is 16.4 µM [rising, partial curve].
`Cc1cc(C)n(C(=O)CNC(=O)Cc2ccccc2)n1`: the cell number change was -10.4%. The AC50 under setting [1] was 10.3 µM [rising, partial curve, poor fit].
`O=C1CN(CC(=O)N2CCCCC2)c2ccccc2O1`: the cell number change was determined as 14.4%. Also, the AC50 under setting [1] is 0.058 µM [falling, full curve].
On to `CCOC(=O)c1sc(C)c(C(=O)NC2CCCCC2)c1N`, for which the cell number change was -11.7%. Besides, under setting [1], the AC50 was 5.8 µM [falling, full curve, poor fit].
Consider `COc1ccc(NC(=O)C2CCCN2C(=O)OC(C)(C)C)cc1` (stereo unspecified), for which the cell number change turned out to be 3.21%. Besides, the AC50 under setting [1] is 0.58 µM [rising, single point].
With `CC(=O)N1CCN(c2ccc(NC(=O)c3ccc([N+](=O)[O-])cc3Cl)cc2)CC1`, the cell number change turned out to be 15.9%. Besides, the AC50 under setting [1] is 29.1 µM [rising, single point].
For the molecule `CCc1ccc(N(CC(=O)NCCc2ccccc2)C(=O)CCC(=O)Nc2ccccn2)cc1`, the cell number change was -4.35%. The AC50 under setting [1] is 0.651 µM [rising, partial curve, poor fit].
Regarding `COCCn1c(=NC(=O)/C=C/c2ccccc2Cl)sc2cc(NC(C)=O)ccc21`, under setting [2], the AC50 is 6.51 µM [falling, single point].
Consider `O=C(Nc1ccc2c(c1)OCCO2)c1cc(-c2ccccc2)nc2ccccc12`, for which the cell number change worked out at 105%. For the same molecule, the AC50 under setting [1] was 29.1 µM [rising, partial curve].
Consider `N#Cc1c(Nc2ccccc2Cl)s[nH]c1=O`, for which the cell number change was -48.3%. Besides, the AC50 under setting [2] was 9.2 µM [falling, partial curve, poor fit]. The AC50 under setting [1] is 13 µM [falling, partial curve].
Consider `CCO/C=C/C(O)(CNC(=O)COc1ccccc1F)C(F)(F)F` (stereo unspecified), for which the cell number change came out at 0.14%.
The same measure, in the same setting: the result for `Cc1cc(-c2nc3ncccc3o2)ccc1NC(=S)NC(=O)C(C)C` reads -43.9%; that for `O=C(COc1cccc(F)c1)Nc1nc(-c2ccncc2)cs1`, 13.2%.
For the molecule `O=S(=O)(c1ccc(-c2n[nH]c(=S)o2)cc1)N1CCCCC1`, the cell number change was 11.5%. Moreover, the AC50 under setting [2] is 0.0461 µM [rising, full curve]. For the same molecule, the AC50 under setting [1] was 0.116 µM [falling, single point].
Consider `CC1(C(=O)O)CCC(C(=O)Nc2ccc(F)cc2)C1(C)C` (stereo unspecified), for which the cell number change worked out at 9.47%.
In the case of `Cc1ccc(Cl)cc1N1CCN(S(=O)(=O)c2ccc3[nH]c(=O)c(=O)[nH]c3c2)CC1`, the cell number change was -55.3%. Also, the AC50 under setting [2] is 32.6 µM [falling, partial curve]. Moreover, under setting [1], the AC50 is 25.9 µM [falling, partial curve, poor fit].
For `CC(=O)Nc1ccc(OCCOc2ccc([N+](=O)[O-])cc2)cc1`, the cell number change amounted to 10.6%. Under setting [1], the AC50 is 1.84 µM [rising, partial curve].
As to `COc1ccc(S(=O)(=O)N2CCC3(CC2)OCCN3S(=O)(=O)c2cccs2)cc1OC`, under setting [2], the AC50 is 0.326 µM [rising, full curve, poor fit].
In the case of `O=c1cc(-c2ccccc2)nc2cc(-c3ccco3)[nH]n12`, the cell number change was -51.4%. Moreover, under setting [2], the AC50 is 29.1 µM [falling, single point].
`O=C(c1cccc(F)c1)N1CCCc2ccccc21`: the cell number change is 3.52%. For the same molecule, under setting [1], the AC50 was 11.6 µM [rising, partial curve].
Regarding `COc1ccc(NC(=O)CC2Oc3ccc(C)cc3NC2=O)cc1` (stereo unspecified), the cell number change turned out to be 29.5%. Besides, the AC50 under setting [1] is 7.31 µM [rising, full curve, poor fit].
Take `CC(=O)OCC(=O)[C@@]1(O)CC[C@H]2[C@@H]3CCC4=CC(=O)CC[C@]4(C)[C@H]3[C@@H](O)C[C@@]21C`: the cell number change was 25.9%. In addition, the AC50 under setting [1] is 29.1 µM [rising, single point].
Consider `Cc1ccc2[nH]c3c(c2c1)CN(C(=O)CN1CCN(c2ccccc2F)CC1)CC3`, for which, under setting [2], the AC50 is 0.461 µM [rising, partial curve].
The same measure, in the same setting: the result for `Cc1nn(-c2ccccc2)c(C)c1[N+](=O)[O-]` reads 0.58 µM [falling, full curve, poor fit].
With `CCOc1ccc(NC(=O)CSc2ncn[nH]2)cc1`, the cell number change was determined as 26.7%. Further, the AC50 under setting [1] is 0.731 µM [rising, full curve].
As to `Oc1c(Cl)cc(Cl)cc1C1=NNC(c2ccc(Cl)cc2)C1` (stereo unspecified), the cell number change was -22.2%. Also, under setting [1], the AC50 is 20.6 µM [falling, single point].
`CCOc1ccc(N2CC(C(=O)N3CCCc4ccccc43)CC2=O)cc1` (stereo unspecified): the cell number change was determined as 24.8%. Further, the AC50 under setting [1] is 29.1 µM [falling, single point].
`CCc1ccccc1OCC(=O)Nc1ccc2c(c1)OCCO2`: the cell number change is -4.27%. The AC50 under setting [1] is 20.6 µM [rising, partial curve].
Consider `COC(=O)c1sccc1NC(=O)c1cc(OC)cc(OC)c1`, for which the cell number change is -24.6%. Further, the AC50 under setting [1] was 29.1 µM [falling, single point].
Consider `CC(C)(C)C(=O)/C=c1\[nH]c(=O)/c(=C\c2ccccc2F)s1`, for which the cell number change worked out at 16.4%.
On to `O=S(=O)(c1ccc2ccccc2c1)N1CCN(CCO)CC1`, for which, under setting [1], the AC50 was 6.51 µM [falling, single point].
Take `Cc1cc2c(N)cccc2nn1`: the cell number change was determined as 1.35%. Under setting [1], the AC50 is 4.61 µM [falling, single point].
With `O=C(NCc1cccnc1)c1cc2ccccc2oc1=O`, the AC50 reads like this: under setting [2], 2.31 µM [rising, partial curve]; under setting [1], 6.51 µM [rising, single point].
For `COc1cccc(C(=O)OCc2cc(=O)oc3c(C)c(C)ccc23)c1OC`, the cell number change stood at 14.5%. Also, the AC50 under setting [1] was 5.8 µM [falling, single point].
Consider `O=C(OCC(=O)N(C1CCCCC1)C1CCCCC1)c1ccco1`, for which the cell number change worked out at 12.3%. Besides, under setting [1], the AC50 is 29.1 µM [rising, single point].
Consider `COc1cccc(/C(O)=C2/C(=O)C(=O)N(CCCN3CCOCC3)C2c2ccncc2)c1` (stereo unspecified), for which the cell number change was -40%. Moreover, the AC50 under setting [2] was 20.6 µM [falling, single point].
In the case of `Cc1cc(C)nc(SCc2ccccc2C#N)n1`, the cell number change turned out to be 5.78%. For the same molecule, the AC50 under setting [2] was 0.00461 µM [rising, full curve, poor fit]. Further, under setting [1], the AC50 was 0.461 µM [rising, full curve].
In the case of `CN(C)c1ccc(/C=N/NC(=O)c2nonc2N)cc1[N+](=O)[O-]`, the cell number change was determined as 16.1%. Further, the AC50 under setting [1] was 6.51 µM [falling, single point].
`Cc1ccc(OCCN2C(=O)c3ccccc3C2=O)cc1`: the cell number change was determined as 20.2%.
Consider `CCOc1ccc(CN(C)CC(=O)Nc2cccc(C)c2)cc1OC`, for which the cell number change was 0.407%. Under setting [2], the AC50 was 4.61 µM [rising, single point]. Moreover, the concentration at half-maximal activity (AC50) under setting [1] is 2.31 µM [rising, partial curve].
`COc1ccc(OC)c(NC(=O)c2cnn(-c3ccccc3)c2C)c1`: the cell number change was determined as 2.75%. The AC50 under setting [1] was 5.8 µM [rising, single point].
On to `Cc1ccc(S(=O)(=O)N2CCOCC2)cc1C(=O)OCC(=O)N1c2ccccc2NC(=O)C1(C)C`, for which the cell number change turned out to be 40.2%. In addition, the AC50 under setting [2] was 7.31 µM [rising, partial curve]. The AC50 under setting [1] was 14.6 µM [rising, partial curve].
On to `CCC1CCCCN1C(=O)CSc1nc(N)c(NC(=O)c2ccc(OC)c(OC)c2)c(=O)[nH]1` (stereo unspecified), for which the AC50 under setting [2] is 5.8 µM [falling, single point].
Consider `Cn1c(CNC2CCCCC2)nc2ccccc21`, for which the cell number change is 3.26%. Under setting [1], the AC50 is 6.51 µM [rising, single point].
In the case of `Cc1ccc(CC(=O)Nc2nc3ccccc3[nH]2)cc1C`, the cell number change came to 20.9%. Also, the AC50 under setting [1] was 29.1 µM [falling, single point].
On to `O=C(Nc1ccccc1-c1ccccc1)C1CCCC1`, for which the AC50 under setting [1] was 29.1 µM [rising, partial curve].
In the case of `Cc1ccccc1NC(=O)CN1CCN(C)CC1`, the cell number change is -15.3%.
Regarding `Cc1cccc(-n2[nH]c3c4c(ccc3c2=O)C(=O)c2ccccc2C4=O)c1`, the cell number change was -15.6%. Also, under setting [1], the AC50 is 2.91 µM [falling, full curve, poor fit].
`NCCCCCc1nnc(SCC(=O)Nc2cccc(Cl)c2)o1`: the cell number change is -8.8%.
Same read-out and setting: the result for `COc1ccc(CCNC(=O)CSc2nnnn2-c2ccccc2OC)cc1OC` reads -12.9%.
In the case of `CCSc1nnc(NC(=O)C2CC(=O)N(Cc3ccc(C)cc3)C2)s1` (stereo unspecified), the cell number change was -37.9%. Further, the AC50 under setting [2] was 1.03 µM [falling, full curve, poor fit].
Turning to `CCCCC(C(=O)O)C(C)CC(=O)Nc1ccn(-c2ccccc2)n1` (stereo unspecified), the cell number change amounted to 20.4%.
Still for that read-out and setting: the result for `CC(=O)C(Cc1ccccc1)NC(=O)CN1CCN(Cc2ccccc2)CC1` (stereo unspecified) reads -20.9%.
Turning to `CCOC(=O)CC(=O)NC(CC(=O)OC)c1ccc(C(C)C)cc1` (stereo unspecified), the cell number change is -7.3%. Moreover, the AC50 under setting [1] was 32.6 µM [falling, single point].
For the molecule `COc1ccc(-c2nnc3n2N=C(c2cccc(Br)c2)CS3)cc1OC`, the cell number change is -10.2%. Further, under setting [1], the AC50 was 0.92 µM [rising, partial curve].
With `O=C1C2CCCCN2C(=O)N1CCCCN1CCN(c2cccc(Cl)c2)CC1` (stereo unspecified), the cell number change stood at 8.2%. Further, the AC50 under setting [1] is 25.9 µM [falling, single point].
On to `CC1(C)CC(=O)C=C(NC2CCCCCC2)C1`, for which the cell number change was 0.325%. For the same molecule, the AC50 under setting [1] is 1.3 µM [rising, full curve].
On to `O=c1cc2n(c(=O)[nH]1)CCC1=C2CCCC1`, for which the cell number change was -16.4%. For the same molecule, the AC50 under setting [2] was 0.0366 µM [falling, full curve, poor fit]. Under setting [1], the AC50 is 0.326 µM [falling, full curve, poor fit].
`CCCNC(=O)NC(=O)COc1ccc2oc3ccccc3c2c1`: the cell number change turned out to be 27.2%. Further, the AC50 under setting [2] is 0.731 µM [rising, full curve, poor fit].
As for `COc1ccc2nc(NC(=O)C34CC5CC(CC(NC(C)=O)(C5)C3)C4)sc2c1`, the cell number change came to 8.67%. Further, the AC50 under setting [1] is 6.51 µM [rising, single point].
In the case of `O=C(COC(=O)C1CC2CCCC(C1)C2=O)NNC(=O)c1ccccc1Br` (stereo unspecified), the cell number change was -22.5%. For the same molecule, the AC50 under setting [1] was 0.146 µM [rising, full curve, poor fit].
As to `O=C(CCNS(=O)(=O)c1cccc2nsnc12)N1CCN(c2ccccn2)CC1`, the AC50 runs as follows: under setting [2], 2.06 µM [rising, partial curve]; under setting [1], 4.11 µM [rising, full curve, poor fit].
`CC(C)(C)c1ccccc1OCCCCCn1ccnc1`: the cell number change was -37.6%. Further, under setting [2], the AC50 is 7.94 µM [falling, partial curve, poor fit]. For the same molecule, the concentration at half-maximal activity (AC50) under setting [1] is 17.8 µM [falling, single point].
